PubChem BioAssay AID1224826 | NIAID – 2016

Purpose: 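Knock-downs that raise or lower Tnf reporter signal after endotoxin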 (primary screen)
Cell system: RAW264.7 G9 macrophages from mouse bearing reporters for p65 (GFP) and the Tnf promoter (mCherry)
Reagent: siRNA pool against mouse genes, 100 nM
Time to read-out: 16 h of LPS stimulation, after 2 days of siRNA transfection
Conditions: bacterial lipopolysaccharide (Salmonella minnesota R595), 10 ng/ml
Measured: 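Imaged Tnf reporter mCherry in nuclei, minus background, normalised per plate to the median and expressed as robust z-scores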
Direction: Tnf reporter robust z-score: higher = stronger Tnf promoter reporter signal after LPS
Active means: 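a well counts as active at a score of -1.3 or below (Tlr4 knock-down control median) or above 3 (raised signal); controls and wells holding fewer than 50 cells are excluded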
Meaning of the calls: active = Tnf reporter clearly lowered or raised; inactive = no clear change in Tnf reporter
Shown is a random part of about 17,000 deposited reagents. Of all reagents, about 1,110 (6.6%) were called active. 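Active means lowered or raised reporter signal; replicate intensities are raw and not normalised per plate.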 Further read-outs or replicates are left out here. Reagent sequences are not shown.

With knock-down of Or5b99, the record shows Tnf reporter robust z-score -1.69; fewer than 50 cells in well enough cells in well; active.
Knock-down of Tbc1d14 resulted in: Tnf reporter robust z-score -1.42; fewer than 50 cells in well enough cells in well; active.
Knock-down of Htr4 gave: Tnf reporter robust z-score -0.4; fewer than 50 cells in well enough cells in well; inactive.
Depletion of Prom1 gave: Tnf reporter robust z-score -0.51; fewer than 50 cells in well enough cells in well; inactive.
For Arsa, the entry reads Tnf reporter robust z-score -0.3; fewer than 50 cells in well enough cells in well; inactive.
Depletion of Daw1 resulted in: Tnf reporter robust z-score -1.36; fewer than 50 cells in well enough cells in well; active.
With knock-down of Myo1e, the record shows Tnf reporter robust z-score -0.77; fewer than 50 cells in well enough cells in well; inactive.
Knock-down of Natd1 gave: Tnf reporter robust z-score -0.29; fewer than 50 cells in well enough cells in well; inactive.
Gtf2ird1 showed Tnf reporter robust z-score -0.36; fewer than 50 cells in well enough cells in well; inactive.
With knock-down of Mef2d, the record shows Tnf reporter robust z-score -0.3; fewer than 50 cells in well enough cells in well; inactive.
Tpm1 scored Tnf reporter robust z-score -0.65; fewer than 50 cells in well enough cells in well; inactive.
After knock-down of B3gnt8, the screen gave Tnf reporter robust z-score 1.52; fewer than 50 cells in well enough cells in well; inactive.
Knock-down of Ca8 gave: Tnf reporter robust z-score -0.18; fewer than 50 cells in well enough cells in well; inactive.

No new results follow: entries from further up.
Natd1 | Tnf reporter robust z-score: -0.29; fewer than 50 cells in well: enough cells in well; call: inactive
Gtf2ird1 | Tnf reporter robust z-score: -0.36; fewer than 50 cells in well: enough cells in well; call: inactive
Mef2d | Tnf reporter robust z-score: -0.3; fewer than 50 cells in well: enough cells in well; call: inactive

The list goes on.
Depletion of Mtap came out at: Tnf reporter robust z-score 0.06; fewer than 50 cells in well enough cells in well; inactive.
For Herpud1, the values are Tnf reporter robust z-score -0.16; fewer than 50 cells in well enough cells in well; inactive.
For Dbf4, the values are Tnf reporter robust z-score 0.89; fewer than 50 cells in well enough cells in well; inactive.
After knock-down of Adam26a, the screen gave Tnf reporter robust z-score -0.69; fewer than 50 cells in well enough cells in well; inactive.
Depletion of Ubap1 gave: Tnf reporter robust z-score -0.74; fewer than 50 cells in well enough cells in well; inactive.
With knock-down of Ap5z1 the results were fewer than 50 cells in well fewer than 50 cells per well; well left out of calls; inactive.
For Ppp1cb, the entry reads Tnf reporter robust z-score 0.43; fewer than 50 cells in well enough cells in well; inactive.
For Adam29, the entry reads Tnf reporter robust z-score 1.5; fewer than 50 cells in well enough cells in well; inactive.
